# Source: the supplement of paper PMC8728848
# This is one part of the list.
# B1: GroEL (Clostridium difficile), Q18CT5 (protein)
# chain: MAKEIKFSEETRRALEAGVNKLADTVKVTLGPKGRNVILDKKFGSPLITNDGVTIAKEIELEDRFENMGAQLVKEVATKTNDVAGDGTTTATVLAQAIIREGLKNVTAGANPILLRKGIQKAVTVAVEELKNQSRIVETQEAISQVASISAGDEEVGKLIAEAMEIVGKDGVITVEESQTMNTELDAVEGMQFDRGFVSAYMVTDVDKMEAVLNDPYILITDKKISNIQELLPVLEQIVQQGKKLLIIAEDVEGEALSTLVVNKLRGTFDVVAVKAPGFGDRRKEMLQDIAILTGAQVISEELGYDLKEADLSMLGRASSVKVTKESTTIVDGSGDKKAIEDRVTQIKHQVEQTTSDFDREKLMERLAKLAGGVAVVKVGAATEVELKERKLRIEDALNATRAAVEEGIVAGGGTAFVSVIPAIGTLIESLEGEVKLGAQIVKKALEEPLRQIAINAGLEGAVIVQNVVNSEAETGFDALNEKYVNMIEAGIVDPTKVSRSALQNAASIASTFLTTEAAVADLPEKEDAGMPGMGGGMPGMM
# Experiments:
# Experiment in all cases: glycan array binding signal (z-score within array); higher = stronger binding
# Details in all cases: glycan notation: IUPAC condensed, linker removed
# [1] = target: Gal(a1-3)Gal(b1-4)GlcNAc(b1-2)Man(a1-3)[Gal(a1-3)Gal(b1-4)GlcNAc(b1-2)Man(a1-6)]Man(b1-4)GlcNAc(b1-4)GlcNAc
# Method in brief: (§1)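 The binding signal is a Z-score computed within each array and averaged over linkers. Arrays of the same protein sequence at different concentrations or buffers were also averaged together. Data originate from 3228 arrays in the Consortium for Functional Glycomics database, kept only where the protein sequence was available.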
# [2] = target: Gal(a1-3)Gal(b1-4)GlcNAc(b1-3)GalNAc
# Method in brief: as §1
# [3] = target: Gal(a1-3)Gal(b1-4)GlcNAc(b1-6)GalNAc
# Method in brief: as §1
# [4] = target: Gal(a1-3)Gal(b1-4)[Fuc(a1-3)]GlcNAc
# Method in brief: as §1
# [5] = target: Gal(a1-3)Gal(b1-4)[Fuc(a1-3)]GlcNAc(b1-2)Man(a1-3)[Gal(a1-3)Gal(b1-4)[Fuc(a1-3)]GlcNAc(b1-2)Man(a1-6)]Man(b1-4)GlcNAc(b1-4)GlcNAc
# Method in brief: as §1
# [6] = target: Gal(a1-3)GalNAc
# Method in brief: as §1
# [7] = target: Gal(a1-3)[Gal(a1-4)]Gal(b1-4)GlcNAc
# Method in brief: as §1
# [8] = target: Gal(a1-4)Gal(b1-3)GlcNAc(b1-2)Man(a1-3)[Gal(a1-4)Gal(b1-3)GlcNAc(b1-2)Man(a1-6)]Man(b1-4)GlcNAc(b1-4)GlcNAc
# Method in brief: as §1
# [9] = target: Gal(a1-4)Gal(b1-4)Glc
# Method in brief: as §1
# [10] = target: Gal(a1-4)Gal(b1-4)GlcNAc
# Method in brief: as §1
# [11] = target: Gal(a1-4)Gal(b1-4)GlcNAc(b1-2)Man(a1-3)[Gal(a1-4)Gal(b1-4)GlcNAc(b1-2)Man(a1-6)]Man(b1-4)GlcNAc(b1-4)GlcNAc
# Method in brief: as §1
# [12] = target: Gal(a1-4)Gal(b1-4)GlcNAc(b1-3)Gal(b1-4)Glc
# Method in brief: as §1
# [13] = target: Gal(a1-4)GlcNAc
# Method in brief: as §1
# [14] = target: Gal(a1-6)Glc
# Method in brief: as §1
# [15] = target: Gal(b1-2)Gal
# Method in brief: as §1
# [16] = target: Gal(b1-3)Gal
# Method in brief: as §1
# [17] = target: Gal(b1-3)Gal(b1-4)GlcNAc
# Method in brief: as §1
# [18] = target: Gal(b1-3)GalNAc
# Method in brief: as §1
# [19] = target: Gal(b1-3)GalNAc(a1-3)[Fuc(a1-2)]Gal(b1-4)Glc
# Method in brief: as §1
# [20] = target: Gal(b1-3)GalNAc(a1-3)[Fuc(a1-2)]Gal(b1-4)GlcNAc
# Method in brief: as §1
# [21] = target: Gal(b1-3)GalNAc(b1-3)Gal
# Method in brief: as §1
# [22] = target: Gal(b1-3)GalNAc(b1-3)Gal(a1-4)Gal(b1-4)Glc
# Method in brief: as §1
# [23] = target: Gal(b1-3)GalNAc(b1-4)Gal(b1-4)Glc
# Method in brief: as §1
# [24] = target: Gal(b1-3)GalNAc(b1-4)[Neu5Ac(a2-3)]Gal(b1-4)Glc
# Method in brief: as §1
# [25] = target: Gal(b1-3)GlcNAc
# Method in brief: as §1
# [26] = target: Gal(b1-3)GlcNAc(a1-3)Gal(b1-4)GlcNAc
# Method in brief: as §1
# [27] = target: Gal(b1-3)GlcNAc(a1-6)Gal(b1-4)GlcNAc
# Method in brief: as §1
# [28] = target: Gal(b1-3)GlcNAc(b1-2)Man
# Method in brief: as §1
# [29] = target: Gal(b1-3)GlcNAc(b1-2)Man(a1-3)[Gal(b1-3)GlcNAc(b1-2)Man(a1-6)]Man(b1-4)GlcNAc(b1-4)GlcNAc
# Method in brief: as §1
# [30] = target: Gal(b1-3)GlcNAc(b1-2)Man(a1-3)[Gal(b1-3)GlcNAc(b1-2)Man(a1-6)]Man(b1-4)GlcNAc(b1-4)[Fuc(a1-6)]GlcNAc
# Method in brief: as §1
binder,measurement,setting,value
B1,glycan array binding signal (z-score),[1],1.12
same,glycan array binding signal (z-score),[2],-1.93
same,glycan array binding signal (z-score),[3],-1.27
same,glycan array binding signal (z-score),[4],0.339
same,glycan array binding signal (z-score),[5],-0.924
same,glycan array binding signal (z-score),[6],0.054
same,glycan array binding signal (z-score),[7],-0.299
same,glycan array binding signal (z-score),[8],-1.24
same,glycan array binding signal (z-score),[9],2.58
same,glycan array binding signal (z-score),[10],-0.452
same,glycan array binding signal (z-score),[11],0.083
same,glycan array binding signal (z-score),[12],-0.087
same,glycan array binding signal (z-score),[13],-0.307
same,glycan array binding signal (z-score),[14],-1.32
same,glycan array binding signal (z-score),[15],-0.964
same,glycan array binding signal (z-score),[16],1.32
same,glycan array binding signal (z-score),[17],-0.843
same,glycan array binding signal (z-score),[18],-0.683
same,glycan array binding signal (z-score),[19],3.31
same,glycan array binding signal (z-score),[20],-0.773
same,glycan array binding signal (z-score),[21],0.853
same,glycan array binding signal (z-score),[22],0.316
same,glycan array binding signal (z-score),[23],1.01
same,glycan array binding signal (z-score),[24],-0.485
same,glycan array binding signal (z-score),[25],-0.195
same,glycan array binding signal (z-score),[26],-0.935
same,glycan array binding signal (z-score),[27],-1.43
same,glycan array binding signal (z-score),[28],-0.397
same,glycan array binding signal (z-score),[29],-0.447
same,glycan array binding signal (z-score),[30],-0.13
